Experiment: soluble on expression in E. coli; label from the status in PepcDB or PDB records

| Sequence | soluble on expression in E. coli |
| --- | --- |
| GGALSYETEILTVEYGLLPIGKIVEKRIECTVYSVDNNGNIYTQPVAQWHDRGEQEVFEYCLEDGSLIRATKDHKFMTVDGQMLPIDEIFERELDLMRVDNLPNIKIATRKYLGKQNVYDIGVERDHNFALKNGFIASN | soluble |
| LQPATAEAADSYKIVGYYPSWAAYGRNYNVADIDPTKVTHINYAFADICWNGIHGNPDPSGPNPVTWTCQNEKSQTINVPNGTIVLGDPWIDTGKTFAGDTWDQPIAGNINQLNKLKQTNPNLKTIISVGGWTWSNRFSDVAATAATREVFANSAVDFLRKYNFDGVDLDWEYPVSGGLDGNSKRPEDKQNYTLLLSKIREKLDAAGAVDGKKYLLTIASGASATYAANTELAKIAAIVDWINIMTYDFNGAWQKISAHNAPLNYDPAASAAGVPDANTFNVAAGAQGHLDAGVPAAKLVLGVPFYGRGWDGCAQAGNGQYQTCTGGSSVGTWEAGSFDFYDLEANYINKNGYTRYWNDTAKVPYLYNASNKRFISYDDAESVGYKTAYIKSKGLGGAMFWELSGDRNKTLQNKLKADL | soluble |
| MAKRDYYEVLEITKSASADEIKKAYRKLAIKFHPDKNPDNPEAEEKFKEAAEAYEVLSTPEKRQRYDQYGHQAAGGGGYGGGMNMDDIFSQFGDVFGSGGSPFESFFGGGGGGRGRGVRKGSNLRIKLKLNLEEIANGCEKKIKVKRQVACDECSGTGAKNGAVQKCGTCNGTGQVKRVVNTMLGQMMSATTCPTCNGEGTTIKDKCTSCHGQGTVEKEETITIKIPAGVVDGMQLSMSGKGNMPPRGGVAGDLLILIEEIEDEQLKRDGLNIIYELYVTFFDAVFGTSVEVPTVDGKVKIKIEPGTQSGKILRLRSKGLKDVNSYQKGDQLIYVNVWTPQTLSKEEKELLATIKESENFKPNPGKNDKSFFERMKEFF | not soluble |
| MEQRGRASQDEEQAIVGAETGSQPSLPVSPMRPIIAPSPAMVLPTPGHGMGIPQFGPVGLPAQASTPMLSSTPGPSYSSAPTPMPNPSAANLWPTYKLVAEIPNAHKKSISGIKFSPDGRYMGSGSADCSIKIWRMDFVYEKTLMGHRLGINEFSWSSDSKLIVSCSDDKLVKVFDVSSGRCVKTLKGHTNYVFCCCFNPSGTLIASGSFDETIRIWCARNGNTIFSIPGHEDPVSSVCFNRDGAYLASGSYDGIVRIWDSTTGTCVKTLIDEEHPPITHVKFSPNGKYILASNLNNTLKLWDYQKLRVLKEYTGHENSKYCVAANFSVTGGKWIVSGSEDHKVYIWNLQTREILQTLDGHNTAVMCTDCHPGQNIIASAALEPDMRIKIWRSQS | not soluble |
| MGNKQGKTDVILIGAGIMSATLGTLLKELAPEWDIVVFERLEEAGAESSNEWNNAGTGHAALCELNYTVEKSDGSIDISKAIKINEQFYVSLQFWAHLVNSGVLANPKEFIRPLPHMSFVQGEDNVAFLKKRHETMAANPLFKGMEFSDDPKKLAEWVPLMMEDRVVTEPIAATRIESGTDVNFGALTRQLFEHLKRKNVNIHYRHHVEDIQRTSDGLWELKVRNLDTGAVERHAAKFVFIGAGGGSLHLLQKSGIPEGKGIGGFPVSGLFMVCNNPEVVEKHHAKVYGKAKVGAPPMSVPHLDTRFIDNQKMLLFGPFAGFSPKFLKNGSMLDLFTSIKPHNVLTILAAGVKNMALTNYLIQQVLLSKEQRMQELREFVPTAKSDEWDIVVAGQRVQVIKDTESGGKGTLQFGTEVVHAADGSIAALLGASPGASTAVHVMLEVIEKCFPEQMKEWRPKVKEMIPSYGESLMKNESLLRQVQASTAEALGLNGHFALQLA | not soluble |
| MGPRASLSRLRELCGHWLRPALHTKKQILELLVLEQFLSVLPPHLLGRLQGQPLRDGEEVVLLLEGIHREPSHAGPLDFSCNAGKSCPRADVTLEEKGCASQVPSHSPKKELPAEEPSVLGPSDEPPRPQPRAAQPAEPGQWRLPPSSKQPLSPGPQKTFQALQESSPQGPSPWPEESSRDQELAAVLECLTFEDVPENKAWPAHPLGFGSRTPDKEEFKQEEPKGAAWPTPILAESQADSPGVPGEPCAQSLGRGAAASGPGEDGSLLGSSEILEVKVAEGVPEPNPELQFICADCGVSFPQLSRLKAHQLRSHPAGRSFLCLCCGKSFGRSSILKLHMRTHTDERPHACHLCGHRFRQSSHLSKHLLTHSSEPAFLCAECGRGFQRRASLVQHLLAHAQDQKPPCAPESKAEAPPLTDVLCSHCGQSFQRRSSLKRHLRIHARDKDRRSSEGSGSRRRDSDRRPFVCSDCGKAFRRSEHLVAHRRVHTGERPFSCQACGRSFTQSSQLVSHQRVHTGEKPYACPQCGKRFVRRASLARHLLTHGGPRPHHCTQCGKSFGQTQDLARHQRSHTGEKPCRCSECGEGFSQSAHLARHQRIHTGEKPHACDTCGHRFRNSSNLARHRRSHTGERPYSCQTCGRSFRRNAHLRRHLATHAEPGQEQAEPPQECVECGKSFSRSCNLLRHLLVHTGARPYSCTQCGRSFSRNSHLLRHLRTHARETLY | soluble |
| MGSTAVVHGDDLMEPTLQSILSQKTLRWIFVGGKGGVGKTTTSCSLAIQLAKVRKSVLLISTDPAHNLSDAFGQKFGKEARLVDGYSNLSAMEIDPNGSIQDLLASGDSQGDDPLAGLGMGNMMQDLAFSIPGVDEAMSFAEVLKQVKSLSYEVIVFDTAPTGHTLRFLQFPTVLEKALAKLSQLSSQFGPMLNSILGARGGLPGGQNIDELLQKMESLRETISEVNTQFKNPDMTTFVCVCIAEFLSLYETERMIQELTSYGIDTHAIVVNQLLFPKEGSGCEQCNARRKMQKKYLEQIEELYEDFNVVRMPLLVEEVRGKEKLEKFSEMLVHPYVPPQLEHHHHHH | soluble |
| MSLTLQELESTLWQCADILRGELSAAEYKDYIFGMLFLKRLNDEFDEEREERRKEFLEDGLDKEEVIELLEDPSIYETFFVPEQARWEKLRNLTLNIGPELDKAFKALEDEPKNSELVGVLSTTNYNDKEKVPDKKLAQLLVLFSTVNLANSNLASEDMLGDAYQYLIKQFADQGGKKGGEFYTPTEVVKVITNILKPQEGDRIYDPTCGSGGMLIQSIEYVKKHGGNPKNLSLFGQEINLSTWAICKMNMLFHGAKGADIQKGDTIREPKHTEGGALKVFDKVLANPPFSLKNWGAEEASYDAFHRFTYGIPPKSYGDLAFVEHMLGSLNMKGKMASVVPHGVLFRGSAEGKIRKGFIEDDLIEAVIGLPQNLFYGTGIPAAILVLNKAKSEERKNKILFIDGSNDFVKQGNKNKLREEDIEKIITAFDKFEDVEKYANVIDLETIKENDYNLNISRYVDTTEEEEPVDIQKVIDEIKELEKEEEKTKEKLNGYLKELGFDEGHHHHHH | soluble |
| MSRDTERYPVKHANSLWQIYKTVPFWKVVKNFVVIQLARYTPFVSVKNWLYRTFLKMDVGEKTAFALMVMPDIMFPERISVGRNSIIGYNTTILAHEYLIEEYRLGDVIIGDEVMVGANTTILPGVTIGDRAIIAAGTVVHKNVPPGAFVGGNPLEHHHHHH | soluble |
| MTKKKKLTHGQVRRVRNNQHKKLKQEESIVWDEALLGSAQPGLVITRFGQHADIEDPVTGEIHRCNLRRGIESLVSGDNVLWRPGAETLAGISGVVEAVEARSSVLVRPDYYDGLKPVAANVDQMVIVSSVLPELSLNIIDRYLIASETLGIAPLIVLNKIDLLSPELREQYSTWLNDYRAIGYDVLYVSKKTGEGIADLEVKLRDRTNVFVGQSGVGKSSLVNALLPELEEDVEEGAISETSGLGQHTTTAARLYHIPSGGDLIDSPGVREFGLWHLETDDVTKAYVEFRPYLGGCKFRDCKHGDDPGCLLREAVSKGEISALRFDNYHRIVQSMTENKANRQYSRSKKPICKSKLLASLEHLLTEGAIFSNISRPSPLYWNVNHG | not soluble |
| MVNALEVPADLLIRRVARKLKEKYPQVKPPAWAYFAKTGPHKERPPTDRDWWYVRAASILRKLYKSPEPIGIETFRTIYGGRQNRGSAPEHFRKAGGSVPRKILQQLEEAGLVVKVPGRGRTISPAGRSLLDTTAREIMEELVKTRPELERYLAAAAAALEHHHHHH | soluble |
| SESRGGRDRKLFVGMLNKQQSEEDVLRLFQPFGVIDECTVLRGPDGSSKGCAFVKFSSHTEAQAAIHALHGSQTMPGASSSLVVKFADTDKE | soluble |
| SQVKQKVYELYKGTVERVTGPRTVSAFLDKGVLSVPEFILAGDNLVSKCPTWSWEAGDPSKRKPYLPPDKQFLVTRNVPCLRRAVSLEEEYDAAGAEVVLGDDEDGEGWLATHGVQASKPEEEEDIPSMDTLDIGKTEGINSIPSYFSAGKKAEEEEDIPDMDTYEDTGNDSVATAQPSYFVAEEPEDDNILRTRTYDVSITYDKYYQTPRVWLTGYDESRMPLKPELVFEDISQDHARKTVTIEDHPHLSAGKHASVHPCKHAAVMKKIIDVLMSRGVEPEVDK | soluble |

Source: the DeepSol protein solubility set
